Test results taken from article PMC7910580.
No constants are given. Whether binding was seen depends on the method and setting. For some assays here: In cells and extracts the contact can be indirect. Some results given as binding are weak or reduced against the parent protein; the word gives no strength.

Amino acid sequences for entries named in this document (tags omitted). A change or cut given only in a name is not applied to a line headed by its entry.
UniProt Q8NEB9: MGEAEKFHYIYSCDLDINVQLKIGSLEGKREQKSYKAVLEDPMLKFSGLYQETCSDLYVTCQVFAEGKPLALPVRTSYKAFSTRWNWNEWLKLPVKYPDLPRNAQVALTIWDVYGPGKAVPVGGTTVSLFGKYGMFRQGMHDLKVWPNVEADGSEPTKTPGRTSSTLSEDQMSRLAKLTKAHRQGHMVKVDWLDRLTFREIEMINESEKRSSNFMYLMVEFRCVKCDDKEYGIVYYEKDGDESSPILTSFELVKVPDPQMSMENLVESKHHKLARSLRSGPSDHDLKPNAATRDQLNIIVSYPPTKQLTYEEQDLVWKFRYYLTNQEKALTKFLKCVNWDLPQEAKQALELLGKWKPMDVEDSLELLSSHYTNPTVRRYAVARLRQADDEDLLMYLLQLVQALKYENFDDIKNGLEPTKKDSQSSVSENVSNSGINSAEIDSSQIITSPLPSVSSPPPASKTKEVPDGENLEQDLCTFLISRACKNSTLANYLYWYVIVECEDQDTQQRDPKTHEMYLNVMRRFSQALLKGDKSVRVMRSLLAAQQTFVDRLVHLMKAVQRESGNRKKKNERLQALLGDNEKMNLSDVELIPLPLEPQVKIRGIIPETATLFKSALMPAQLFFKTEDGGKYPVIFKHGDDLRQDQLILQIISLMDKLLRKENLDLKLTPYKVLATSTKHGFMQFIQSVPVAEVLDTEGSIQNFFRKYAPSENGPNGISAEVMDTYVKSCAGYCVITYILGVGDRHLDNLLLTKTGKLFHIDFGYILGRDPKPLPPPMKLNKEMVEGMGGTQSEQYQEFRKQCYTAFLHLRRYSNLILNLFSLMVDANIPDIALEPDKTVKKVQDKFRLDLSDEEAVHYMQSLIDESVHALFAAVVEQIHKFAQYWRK
UniProt Q15386: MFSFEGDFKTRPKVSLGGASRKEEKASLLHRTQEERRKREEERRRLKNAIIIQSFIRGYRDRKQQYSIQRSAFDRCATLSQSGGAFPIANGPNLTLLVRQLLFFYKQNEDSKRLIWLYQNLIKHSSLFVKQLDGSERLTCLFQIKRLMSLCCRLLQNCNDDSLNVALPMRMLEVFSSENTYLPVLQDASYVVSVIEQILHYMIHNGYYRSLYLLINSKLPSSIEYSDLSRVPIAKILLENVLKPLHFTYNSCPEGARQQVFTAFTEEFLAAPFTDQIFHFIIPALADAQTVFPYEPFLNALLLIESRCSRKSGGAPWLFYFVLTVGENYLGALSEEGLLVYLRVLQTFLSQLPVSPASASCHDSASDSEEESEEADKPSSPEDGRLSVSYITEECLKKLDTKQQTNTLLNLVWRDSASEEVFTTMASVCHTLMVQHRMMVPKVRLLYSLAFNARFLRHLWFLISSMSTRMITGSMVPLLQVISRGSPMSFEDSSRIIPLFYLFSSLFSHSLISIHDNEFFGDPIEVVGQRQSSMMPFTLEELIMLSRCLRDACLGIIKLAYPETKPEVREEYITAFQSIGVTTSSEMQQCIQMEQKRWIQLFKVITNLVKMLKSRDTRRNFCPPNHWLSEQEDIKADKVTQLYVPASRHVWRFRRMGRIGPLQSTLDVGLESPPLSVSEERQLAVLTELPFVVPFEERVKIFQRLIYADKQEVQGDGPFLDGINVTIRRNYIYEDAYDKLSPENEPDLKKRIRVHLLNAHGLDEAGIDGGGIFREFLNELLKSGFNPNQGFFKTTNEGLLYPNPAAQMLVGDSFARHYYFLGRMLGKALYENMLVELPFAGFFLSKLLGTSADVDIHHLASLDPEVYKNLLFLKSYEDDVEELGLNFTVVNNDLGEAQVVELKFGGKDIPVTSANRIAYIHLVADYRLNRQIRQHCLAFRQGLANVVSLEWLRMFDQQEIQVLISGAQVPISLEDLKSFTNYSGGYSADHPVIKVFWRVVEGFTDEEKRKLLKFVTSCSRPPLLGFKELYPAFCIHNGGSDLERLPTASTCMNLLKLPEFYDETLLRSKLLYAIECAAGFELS

Columns and labels:
[1] = molecular target: Flag-VPS34 (baculovirus) (UniProt Q8NEB9); test: pull-down; Flag-VPS34 immobilized on anti-Flag M2 beads, incubated with purified HA-UBE3C for 30 min in 50 mM Tris pH 7.5, 150 mM NaCl, 1% NP40; western blot; both purified
[2] = molecular target: VPS34 (endogenous) (human (endogenous in 293T)) (UniProt Q8NEB9); test: co-IP; endogenous proteins in 293T lysates, antibodies and protein A Sepharose; cells untreated, starved (EBSS) or treated for 30 min with thapsigargin, tunicamycin, MG132, 17-DMAG, 17-AAG or puromycin

Row | binding [1] | binding [2] | Substance
1 | binds | – | HA-UBE3C (from UniProt Q15386-1 1-1083) (enzyme)
2 | – | binds | UBE3C (endogenous) (from UniProt Q15386 1-1083) (enzyme)
